# In PubChem BioAssay AID720504 (National Center for Advancing Translational Sciences (NCATS), 2013):
# Amino acid sequences for entries named in this document (tags omitted).
# UniProt P53350, whole entry, looked up: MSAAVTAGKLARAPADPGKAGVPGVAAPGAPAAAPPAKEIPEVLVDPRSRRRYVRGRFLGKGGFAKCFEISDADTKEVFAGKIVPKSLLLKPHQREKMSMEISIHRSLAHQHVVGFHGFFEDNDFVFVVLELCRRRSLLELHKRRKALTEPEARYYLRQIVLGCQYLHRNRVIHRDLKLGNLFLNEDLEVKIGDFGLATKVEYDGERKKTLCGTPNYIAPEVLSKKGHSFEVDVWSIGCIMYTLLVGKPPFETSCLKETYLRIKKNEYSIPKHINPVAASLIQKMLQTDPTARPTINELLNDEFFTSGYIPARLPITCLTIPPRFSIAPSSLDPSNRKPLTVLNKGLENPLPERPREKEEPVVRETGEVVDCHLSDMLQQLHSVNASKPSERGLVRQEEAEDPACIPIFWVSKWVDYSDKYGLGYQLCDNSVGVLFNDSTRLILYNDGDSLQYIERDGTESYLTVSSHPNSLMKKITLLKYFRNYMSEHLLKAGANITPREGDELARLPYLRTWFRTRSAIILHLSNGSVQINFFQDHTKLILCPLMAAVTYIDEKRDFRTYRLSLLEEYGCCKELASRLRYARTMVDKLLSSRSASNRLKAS
# The whole screen tested about 360,000 compounds, of which about 10,000 (2.8%) were called active. The inconclusive results got no clear call from the source; some entries with a clear call stand among them for comparison. Calls come from the whole dose curve; as a rule, active = well fitted inhibition curve with a large enough effect; inconclusive = small, poorly fitted or top-dose-only effect; inactive = flat fitted curve, though single readings scatter. A potency beside an inconclusive call is a rough fit, not a confirmed value.
# Biological target: Serine/threonine-protein kinase PLK1 (Homo sapiens) (UniProt P53350)
# Assay: qHTS for Inhibitors of PLK1-PDB (polo-like kinase 1 - polo-box domain): Primary Screen; note: nearly all actives have a fitted effect of over 65% in size; for max response, negative = inhibition: series mostly up to about 57 µM
# Conditions: Plk1 PBD binding of FITC phosphopeptide, fluorescence polarization
# % is set by controls: 0 for no effect and ±100 for the full control effect; potency is the fitted concentration of half-maximal effect.
Structure (SMILES),"max response, negative = inhibition",Potency
O=C(Nc1ccc(N2CCOCC2)cc1)c1ccc2nc(-c3ccco3)c(-c3ccco3)nc2c1,inactive: -9.64%,
COc1ccc(Cc2c3cc(OC)c(OC)cc3cc[n+]2C)cc1OC,inconclusive: -31.8% [inhibitor],
O=C(NC(=S)Nc1ccc2[nH]c(=O)[nH]c2c1)c1cncc(Br)c1,inconclusive: -31.9% [inhibitor],
COc1ccccc1CN(Cc1cc2cc(C)cc(C)c2[nH]c1=O)Cc1nnnn1CC1CCCO1 (centres undefined),inactive: -2.13%,
Cc1ccc2c(C)cc(=S)[nH]c2c1,,"inconclusive: 6.7 µM [inhibitor, partial curve]"
Cc1ccc(C(=O)N2CCSC2=S)cc1,,"inconclusive: 15 µM [inhibitor, partial curve, poor fit]"
Cc1ccn2cc(-c3cccc([N+](=O)[O-])c3)nc2c1,inactive: -10.4%,
Nc1nc(O)c(CC(=O)O)s1,,"inconclusive: 26.7 µM [inhibitor, single point]"
ClC1=CN(C2=NCCC2)CC1,inactive: -8.49%,
CC(=O)N1c2ccc(S(=O)(=O)N3CCC(C(=O)Nc4cccc(C)c4C)CC3)cc2CC1C (centres undefined),,active: 23.8 µM
COc1ccc(-c2cc(C(=O)NCC3CCCO3)c3cc(C(C)C)ccc3n2)cc1 (centres undefined),,"inconclusive: 29.9 µM [inhibitor, partial curve]"
Cc1nn(-c2ncc(C(F)(F)F)cc2Cl)c(=O)n1-c1c(F)cccc1F,inactive: 2.56%,
CCN(CC(=O)Nc1ccccc1C(F)(F)F)C(=O)CCOc1ccccc1C,inactive: -1.84%,
CCOC(=O)CNC(=O)c1ccc(OCC(F)(F)F)cc1,inactive: -13.8%,
O=C(c1cccs1)n1nc(-c2ccccc2)nc1NCc1ccco1,,active: 26.7 µM
COCCN1Cc2cc3cc(C)ccc3nc2SC1=Nc1cccc(OC)c1,inactive: -8.19%,
COc1ccc2[nH]c(=O)c(CN(C)C(=O)c3cccs3)cc2c1,,"inconclusive: 26.7 µM [inhibitor, partial curve]"
CCOC(=O)c1sc(NC(=O)CNCc2cccnc2)c(C(=O)OCC)c1C,inactive: -0.73%,
C[C@H]1CN=C(Nc2ccccc2)N1CCCC1CCCCC1,,"inconclusive: 37.7 µM [inhibitor, single point]"
CC(=O)Oc1c(-c2ccco2)oc2ccccc2c1=O,inactive: -9.29%,
Cc1cc(C(=O)NCCC2=CCCCC2)c(C)o1,,"inconclusive: 33.6 µM [inhibitor, partial curve]"
CC1CCC/C(=N\NC(=O)COc2ccccc2Cl)C1 (centres undefined),,"inconclusive: 29.9 µM [inhibitor, single point]"
COc1cc(/C=C2\N=C(c3ccccc3)OC2=O)ccc1OCc1c(C)no[n+]1[O-],,"inconclusive: 23.8 µM [inhibitor, partial curve]"
N#Cc1c(-c2ccc(Cl)cc2)c2c([nH]c1=S)CCCC2,,"inconclusive: 26.7 µM [inhibitor, partial curve]"
CCCCOCCCNC(=O)CCCOc1ccccc1,,"inconclusive: 23.8 µM [inhibitor, partial curve]"

# Two neighbouring compounds already listed, quoted:
Structure (SMILES),"max response, negative = inhibition",Potency
COc1ccc(-c2cc(C(=O)NCC3CCCO3)c3cc(C(C)C)ccc3n2)cc1 (centres undefined),,"inconclusive: 29.9 µM [inhibitor, partial curve]"
Cc1nn(-c2ncc(C(F)(F)F)cc2Cl)c(=O)n1-c1c(F)cccc1F,inactive: 2.56%,

# (cont.)

Structure (SMILES),"max response, negative = inhibition",Potency
C[C@@H](c1ccccc1)N1C[C@@H](COCc2ccccc2)Oc2cc(N3CCC[C@@H]3CO)ccc2S1(=O)=O,inactive: -5.99%,
CCOC(=O)C1CCN(C(=O)Nc2ccc(Cl)cc2Cl)CC1,,"inconclusive: 29.9 µM [inhibitor, partial curve]"
COC(=O)c1sc(-c2ccc(C(C)(C)C)cc2)cc1NC(=O)c1ccccc1C(=O)O,,active: 21.2 µM
Cc1ccc(S(=O)(=O)CCC(=O)OCc2ccc(S(=O)(=O)C(C)C)cc2)cc1,,"inconclusive: 9.47 µM [inhibitor, partial curve]"
O=C1NN(c2ccccc2)C(=O)/C1=C\c1ccc2c(c1)OCO2,,active: 26.7 µM
O=c1c2c(-c3ccccc3)csc2nc2n1CCC2,,"inconclusive: 26.7 µM [inhibitor, partial curve]"
COc1cccc(OCCNCc2ccccc2)c1,,active: 16.8 µM
CC(C)(C)c1nnc(NC(=O)C2CC(=O)N(CCc3ccc(F)cc3)C2)s1 (centres undefined),,"inconclusive: 21.2 µM [inhibitor, partial curve]"
CCN(CC)Cc1c(O)ccc2occ(C(=O)c3ccccc3)c12,inactive: 4.39%,
CCc1nnc(N/N=C\c2ccc(OC(C)=O)c(OC)c2)n1N,inactive: -3.21%,
O=C(O)c1cc(S(=O)(=O)N2CCOCC2)c(Sc2ccccn2)cc1Sc1ccccn1,,"inconclusive: 23.8 µM [inhibitor, single point]"
Fc1ccc(Nc2nc(N3CCOCC3)nc(N3CCOCC3)n2)cc1Cl,inconclusive: -36.2% [inhibitor],
NS(=O)(=O)c1ccc(Nc2nc(-c3ccc4ccccc4c3)cs2)cc1,inactive: -6.69%,
O=C(NCc1ccc2c(c1)OCO2)Nc1ccc([N+](=O)[O-])cc1,inactive: -4.61%,
CCCCOc1ccc(-c2c(C#N)c(N)[nH]c(=S)c2C#N)cc1,,"inconclusive: 26.7 µM [inhibitor, partial curve]"
O=C(CNC(=O)OCc1ccccc1)Oc1cc2oc(=O)cc(-c3ccccc3)c2cc1Cl,,"inconclusive: 13.4 µM [inhibitor, partial curve]"
O=C(CSC1CC(=O)N(CCc2ccccc2)C1=O)Nc1cccc(Cl)c1 (centres undefined),,"inconclusive: 10.6 µM [inhibitor, partial curve]"
O=C(c1cn(Cc2ccccc2)nc1-c1ccccc1)N1CCN(c2ccccn2)CC1,inactive: -6.37%,
Nc1nc2n(n1)C(=O)CC(c1ccccc1)N2 (centres undefined),,active: 26.7 µM
COc1cccc(CNCCNC(=O)c2ccco2)c1OC,,active: 18.9 µM
O=C(c1ccco1)N1CCN(Cc2nnnn2CC2CCCO2)CC1 (centres undefined),,active: 11.9 µM
O=C(NCc1cccs1)C(=O)c1cn(CC(=O)N2CCCC2)c2ccccc12,inactive: -9.43%,
COc1ccc(NC(=S)Nc2ccc3c(c2)c(=O)n(C)n3-c2ccccc2)cc1,,"inconclusive: 29.9 µM [inhibitor, single point]"
O=C(O)c1cc(Nc2cc(Cl)c3nonc3c2[N+](=O)[O-])ccc1O,,active: 4.74 µM
Cc1ccc(-c2nc(-c3ccc(Cl)cc3)sc2CC(=O)O)c(C)c1,,"inconclusive: 29.9 µM [inhibitor, partial curve]"

Structure (SMILES),"max response, negative = inhibition",Potency
COc1ccccc1NC(=O)C(=O)N(c1cccnc1)C(C(=O)NC(C)(C)C)c1ccccc1 (centres undefined),,"inconclusive: 29.9 µM [inhibitor, single point]"
CCCN(S(=O)(=O)c1ccccc1F)S(=O)(=O)c1ccccc1Br,inactive: -3.87%,
Cc1ccc([C@@H]2CC=C(C(=O)O)[C@H](c3ccc(Cl)cc3)N2S(=O)(=O)c2ccc(C)cc2)cc1,,"inconclusive: 26.7 µM [inhibitor, single point]"
Cc1cc(SCC(=O)NN)c2cc(Br)ccc2n1,,"inconclusive: 16.8 µM [inhibitor, partial curve]"
CCN1C(=O)/C(=C/c2ccc(OCc3ccc(C(=O)O)cc3)c(Cl)c2)NC1=S,,"inconclusive: 33.6 µM [inhibitor, single point]"
O=C1CSC(=S)N1/N=C/c1ccc(O)c([N+](=O)[O-])c1,,active: 23.8 µM
Fc1ccccc1/C=N/n1c(C2CCCCC2)n[nH]c1=S,,"inconclusive: 21.2 µM [inhibitor, single point]"
N#C/C(=C/c1ccccc1OCc1ccc(F)cc1)c1ccc(C(=O)O)cc1,,"inconclusive: 26.7 µM [inhibitor, single point]"
COCCNC(=O)C/C(C)=N/NC(=O)C(=O)NC1CCCCC1,,active: 23.8 µM
COc1ccc(OC)c(C(Nc2ccccc2)P(=O)(OC(C)C)OC(C)C)c1 (centres undefined),inactive: 6.56%,
Fc1cccc2sc(Nc3nnc(-c4ccco4)o3)nc12,,"inconclusive: 37.7 µM [inhibitor, partial curve, poor fit]"
Cc1cc(C=O)c(C)n1-c1ccc(N2CCOCC2)cc1,,"inconclusive: 23.8 µM [inhibitor, single point]"
Nc1ncc(Br)cc1N=Cc1ccccc1,inactive: -5.73%,
Nc1ccc(Oc2ccc(Br)cc2)cc1,inactive: -17.3%,
Cc1ccc(N=C2NC(=O)/C(=C/C=C/c3ccco3)S2)cc1,,"inconclusive: 23.8 µM [inhibitor, partial curve]"
CC1CCc2sc3c(c2C1)c(=O)n(CC(=O)O)c(=O)n3Cc1ccc(Cl)cc1 (centres undefined),,"inconclusive: 23.8 µM [inhibitor, single point]"
Nc1[nH]c(=S)nc2nc(-c3ccccc3)c(-c3ccccc3)nc12,,active: 21.2 µM
Clc1ccc(COn2nnc3ccccc32)c(Cl)c1,,"inconclusive: 29.9 µM [inhibitor, single point]"
O=C(Nc1ccc(N2CCOCC2)cc1)Nc1cnsn1,,"inconclusive: 37.7 µM [inhibitor, single point]"
COc1cc(NC(=O)CN2CCN(c3ccccc3F)CC2)c(C)cc1[N+](=O)[O-],,"inconclusive: 37.7 µM [inhibitor, single point]"
O=C(Nc1ccccc1N1CCOCC1)c1ccccc1NS(=O)(=O)c1ccc(F)c(F)c1,,"inconclusive: 33.6 µM [inhibitor, single point]"
CC(C)(C)c1csc(NC(=O)c2cccs2)n1,,"inconclusive: 26.7 µM [inhibitor, partial curve]"
Cc1nc(-c2noc(-c3ccc(Cl)cc3)n2)c(C(F)(F)F)o1,inactive: -2.19%,
Cc1ccccc1C1CC(=O)Oc2cc(O)ccc21 (centres undefined),,active: 16.8 µM
